Source: PubChem BioAssay AID651640 (Broad Institute, 2012)
Screen size: about 350,000 compounds; about 6,000 (1.7%) were called active. The inconclusive results got no clear call from the source; some entries with a clear call stand among them for comparison. Cut-off read from the data, not from the text of the source: active = CPE inhibition above about 20% (passing the limit was not always enough); inconclusive = no clear call, values can overlap the other calls; tested in BHK-21 cells.

Assay: protection of cells from dengue 2 killing – plate reader, single concentration, primary screen (AID 651640);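 note: 0% = median of neutral control wells and 100% = median of positive control wells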
Settings: DENV2-infected cells, cytopathic effect rescue, at 9.99 µM, active compounds read high

**Q.** With C[C@@H]1CN([C@@H](C)CO)C(=O)c2cc(NC(=O)Nc3cccc4ccccc34)ccc2O[C@@H](C)CCCCO[C@@H]1CN(C)Cc1ccc(C(F)(F)F)cc1 as the compound, how does the CPE inhibition read?
**A.** The CPE inhibition was inconclusive: 24.8%.

**Q.** For C[C@@H]1CCCCO[C@H](CN(C)C(=O)CCCN(C)C)[C@H](C)CN([C@H](C)CO)C(=O)c2cc(NC(=O)Nc3cccc4ccccc34)ccc2O1, which CPE inhibition is on record?
**A.** Its CPE inhibition is inactive: -1.76%.

**Q.** For CCCC#Cc1ccc2c(c1)O[C@@H](CN(C)C(=O)COC)[C@H](C)CN([C@H](C)CO)S2(=O)=O, which CPE inhibition is on record?
**A.** The CPE inhibition was inconclusive: 39.6%.

**Q.** Which CPE inhibition does the source give for Cc1noc(C)c1NC(=O)N(C)C[C@H]1Oc2ncc(C#CC3CC3)cc2C(=O)N([C@H](C)CO)C[C@H]1C here?
**A.** The CPE inhibition was inconclusive: 21.7%.

**Q.** With COc1ccc(NC(=O)Nc2cccc3c2O[C@H](CN(C)S(=O)(=O)c2ccccc2)[C@@H](C)CN([C@@H](C)CO)C3=O)cc1 as the compound, how does the CPE inhibition read?
**A.** The CPE inhibition was inactive: -0.519%.

**Q.** Which CPE inhibition does the source give for CCCc1cn([C@H]2C[C@@H]3O[C@H](CO)CC[C@@H]3O[C@@H]2CCc2ccc(-c3ccccc3C#N)cc2)nn1 here?
**A.** The CPE inhibition was active: 27.9%.

**Q.** For CC(C)NC(=O)Nc1ccc2c(c1)C(=O)N([C@@H](C)CO)C[C@H](C)[C@@H](CN(C)Cc1ccc(C(F)(F)F)cc1)OCCCC[C@@H](C)O2, which CPE inhibition is on record?
**A.** Its CPE inhibition is inactive: 11.5%.

**Q.** For COC(=O)CCc1c(C)c(C(=O)c2cc(F)c(F)c(F)c2F)c2ccccn12, which CPE inhibition is on record?
**A.** Its CPE inhibition is inactive: -0.098%.

**Q.** With CCCNC(=O)N(C)C[C@@H]1Oc2cc(Br)ccc2S(=O)(=O)N([C@@H](C)CO)C[C@H]1C as the compound, how does the CPE inhibition read?
**A.** The CPE inhibition was inconclusive: 26.9%.

**Q.** Which CPE inhibition does the source give for C[C@H]1CN([C@@H](C)CO)C(=O)c2cc(C#CCc3ccccc3)cnc2O[C@@H]1CN(C)Cc1ccccc1 here?
**A.** The CPE inhibition was inconclusive: 27.1%.

**Q.** Which CPE inhibition does the source give for C[C@H](CO)N1C[C@H](C)[C@H](CN(C)S(=O)(=O)c2ccccc2)OCCCC[C@H](C)Oc2ccc(NC(=O)Nc3ccccc3)cc2C1=O here?
**A.** The CPE inhibition was inactive: -2.03%.

**Q.** Which CPE inhibition does the source give for CCOC(=O)N1CCN(C(=O)CCN2C(=O)c3ccccc3S2(=O)=O)CC1 here?
**A.** Its CPE inhibition is inconclusive: 50.6%.

**Q.** With COC(=O)C1=C(C)NC(C)=C(C(=O)OCC2CCCO2)C1c1ccc(Cl)c([N+](=O)[O-])c1 (stereo not drawn) as the compound, how does the CPE inhibition read?
**A.** Its CPE inhibition is inconclusive: 34.2%.

**Q.** For Cc1c(Cl)cccc1NC(=S)NC1CCCC1, which CPE inhibition is on record?
**A.** The CPE inhibition was inconclusive: 37.9%.

**Q.** For Cc1cc(Nc2ccc(Br)cc2)nc(-c2ccccc2O)n1, which CPE inhibition is on record?
**A.** The CPE inhibition was inconclusive: 24.1%.

**Q.** For O=C(C[C@H]1CC[C@H]2[C@@H](COC[C@@H](O)CN2Cc2cccc(C(F)(F)F)c2)O1)NCc1ccc(F)cc1, which CPE inhibition is on record?
**A.** Its CPE inhibition is active: 111%.

**Q.** For Cc1cc(C(=O)Nc2c(C)n(C)n(-c3ccccc3)c2=O)on1, which CPE inhibition is on record?
**A.** The CPE inhibition was inconclusive: 33%.

**Q.** Which CPE inhibition does the source give for COc1cccc(NC(=O)C[C@H]2CC[C@@H]3[C@@H](COc4ccc(NC(=O)C5CCCCC5)cc4C(=O)N3C)O2)c1 here?
**A.** Its CPE inhibition is active: 32.9%.
